Assay results published in PubChem BioAssay AID2685 (National Center for Advancing Translational Sciences (NCATS), 2010).
The other results are listed elsewhere or left out. Shown are side measurements of this screen, not its main read-out; they come without a call. Compounds called inactive in the main read-out are mostly missing here. The note in brackets gives the kind of curve behind each potency; many fits are weak.

Experiment: qHTS Assay for Lipid Storage Modulators in Drosophila S3 Cells;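 as to cell number change: cells counted by Cell Tracker Red CMTPX staining in the red channel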
Settings: BODIPY lipid droplet fluorescence, 18-24 h; for cell number change: measured here: cell count max response, cells fed with added oleic acid
How it was run: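 Drosophila S3 cells got compounds at several concentrations plus oleic acid (400 uM solution). Laser-scanning cytometry with 488 nm excitation read lipid droplets at 500-530 nm and cells at 575-640 nm. Percent activity was relative to 20 uM Triacsin C.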

[1] = measured here: cell number channel AC50, cells fed with added oleic acid
[2] = measured here: lipid fluorescence (Fed channel) AC50, cells fed with added oleic acid

Row | SMILES | cell number change | AC50 [1] | AC50 [2]
1 | CCOC(=O)c1csc(CCNC(=O)c2oc3c(Cl)cc(C)cc3c2C)n1 | 12.5% | 6.51 µM [rising, single point] | 
2 | O=C(OCCN1C(=O)c2ccccc2C1=O)Oc1ccccc1 | 21.2% |  | 6.51 µM [rising, single point]
3 | CC1CC(C)CN(C(=O)c2ccc(NC(=O)c3ccc(=O)[nH]c3)cc2)C1 (configuration not stated) | -17.5% |  | 0.00461 µM [falling, full curve, poor fit]
4 | O=C(CCNC(=O)c1ccc([N+](=O)[O-])cc1)NC1CCCc2ccccc21 (configuration not stated) | -13% |  | 
5 | O=C(CN1CCOCC1)N/N=C/c1c(O)ccc2ccccc12 | 3.23% |  | 18.4 µM [falling, single point]
6 | CC(C)C[C@H](NC(=O)NCc1ccc(F)cc1)C(=O)O | 0.3% |  | 0.651 µM [falling, full curve, poor fit]
7 | O=C(Cc1ccc(F)cc1)Nc1ccc(S(=O)(=O)N2CCCC2)cc1 | -18.1% |  | 
8 | CCC(=O)NC(=S)Nc1cccc(NC(=O)CC)c1 | -22.9% |  | 1.03 µM [falling, full curve]
9 | CC(C)C[C@@H](NC(=O)C1CCC(CNC(=O)[C@H](Cc2ccccc2)NC(=O)OC(C)(C)C)CC1)C(=O)O (some centres not stated) | 13.9% |  | 
10 | Cc1c(C(=O)NC(C)C2CC3CCC2C3)cccc1[N+](=O)[O-] (configuration not stated) | -0.952% |  | 29.1 µM [falling, single point]
11 | O=C(Nc1ccc(Cl)cc1F)C1CC1 | -0.471% |  | 29.1 µM [rising, single point]
12 | CN(C)CCNC(=O)Cn1ccc2cc(S(=O)(=O)N3CCCCC3)ccc21 | 14.7% |  | 
13 | CN(C)CCCN1C(=O)c2oc3ccc(Cl)cc3c(=O)c2C1c1cccnc1 (configuration not stated) | 13.1% |  | 3.26 µM [rising, full curve]
14 | Cc1ccc2nc(N(CCN(C)C)C(=O)c3ccc4c(c3)OCCO4)sc2c1 |  |  | 23.1 µM [rising, partial curve, poor fit]
15 | Cc1nn(C)cc1NC(=O)Cn1nc(C(F)(F)F)cc1C1CC1 | -1.02% |  | 0.58 µM [falling, partial curve, poor fit]
16 | CCOC(=O)CSc1nc(C)c(CC)c(C)c1C(N)=O | 24.6% |  | 0.0651 µM [falling, full curve, poor fit]
17 | CCCOc1ccc(/C=C/C(=O)NCc2ccccc2)cc1 | 2.94% |  | 8.2 µM [rising, partial curve]
18 | CCOC(=O)c1cccc(NC(=O)C2CCCN(S(=O)(=O)c3c(C)n[nH]c3C)C2)c1 (configuration not stated) | -20.6% | 0.164 µM [falling, full curve, poor fit] | 
19 | CNC(=O)C(=O)Nc1c(C)cc(C)cc1C |  | 6.51 µM [rising, single point] | 
20 | Cc1cc(C)c2c(N)c(C(=O)Nc3nccs3)sc2n1 | -7.94% |  | 
21 | CCOc1ccc(NC(=O)CCSc2nc3c(c(CC)c2C#N)C(=O)CC(C)(C)C3)cc1 | 42.4% | 1.46 µM [rising, full curve] | 1.3 µM [rising, full curve]

Row | SMILES | cell number change | AC50 [1] | AC50 [2]
22 | CN1CCN(S(=O)(=O)c2ccc(NC(=O)c3ccc(F)cc3Cl)cc2)CC1 | 1.38% |  | 2.91 µM [rising, single point]
23 | CN(C)S(=O)(=O)c1cc(NC2CC(=O)N(c3ccc(F)cc3)C2=O)ccc1Cl (configuration not stated) | 21.4% |  | 0.00517 µM [rising, full curve, poor fit]
24 | Cc1csc(NC(=O)c2cn3ccccc3n2)n1 | 38.5% | 13 µM [rising, single point] | 
25 | Cc1cc(OCC(=O)NC2CC2)c2c(C)cc(=O)oc2c1 |  |  | 2.06 µM [rising, partial curve, poor fit]
26 | O=C(Oc1ccccc1C(=O)N1CCOCC1)c1ccccc1 |  | 4.61 µM [falling, single point] | 
27 | CC(C)Cn1c(N)c(C(=O)COC(=O)c2cc(C(F)(F)F)nc3ccccc23)c(=O)n(C)c1=O | -70.4% | 16.4 µM [falling, single point] | 16.4 µM [falling, single point]
28 | O=C(CS(=O)(=O)Cc1ccccc1)NCc1ccc2c(c1)OCO2 |  | 0.164 µM [rising, full curve] | 5.17 µM [rising, single point]
29 | Cc1ccccc1NC(=O)Cc1nc(COC(=O)Cc2c(F)cccc2Cl)cs1 | -4.51% |  | 
30 | CC(C)(Oc1ccc(Cl)cc1)C(=O)OCn1nnc2ccccc2c1=O |  | 0.146 µM [rising, full curve, poor fit] | 
31 | O=C(Nc1ccc(C(=O)O)c(O)c1)c1ccccc1 | 7.38% |  | 6.51 µM [falling, single point]
32 | Cc1ccc(-c2nc(SC(C)C(=O)N3CCCC3)n[nH]2)cc1 (configuration not stated) | 35.5% |  | 
33 | CSc1nc(-c2ccccc2)cn1-c1ccc(NC(C)=O)cc1 | 29.1% |  | 0.259 µM [rising, full curve]
34 | CCn1cc(/C=C(\NC(=O)c2ccccc2)C(=O)NCCCN2CCOCC2)c2ccccc21 |  |  | 18.4 µM [rising, single point]
35 | CN(C)c1ccc(/C=[N+](\[O-])C2SC(=S)N(C)C2(C)C)cc1 (configuration not stated) | 42.3% | 0.00517 µM [rising, full curve, poor fit] | 
36 | COc1ccc(-c2nnc(SCC(=O)NCCC(C)C)nc2-c2ccc(OC)c(OC)c2)cc1OC | 70.4% |  | 5.8 µM [rising, full curve]
37 | CC(C)C(NC(=O)c1ccco1)C(=O)NC1CCCCCC1 (configuration not stated) | 11.7% |  | 11.6 µM [falling, single point]
38 | O=C(Nc1c(Cl)cccc1Cl)c1cc(-c2ccco2)on1 | -10.3% | 1.3 µM [rising, partial curve] | 29.1 µM [rising, single point]
39 | COc1ccc(CNC(=S)Nc2cc(C)cc(C)c2)cc1 | -3.18% |  | 
40 | CC(=O)C1=C(O)CCC1=NCCc1ccccc1 | 25.9% |  | 6.51 µM [falling, single point]
41 | Cc1ccc(C(=O)O/N=C/C2=C(Cl)c3ccccc3CC2)cc1 | -49.1% | 4.11 µM [falling, full curve] | 4.11 µM [falling, full curve]

Exported with tabs: entries from further up
Row	SMILES	cell number change	AC50 [1]	AC50 [2]
19	CNC(=O)C(=O)Nc1c(C)cc(C)cc1C		6.51 µM [rising, single point]	
20	Cc1cc(C)c2c(N)c(C(=O)Nc3nccs3)sc2n1	-7.94%		
21	CCOc1ccc(NC(=O)CCSc2nc3c(c(CC)c2C#N)C(=O)CC(C)(C)C3)cc1	42.4%	1.46 µM [rising, full curve]	1.3 µM [rising, full curve]
22	CN1CCN(S(=O)(=O)c2ccc(NC(=O)c3ccc(F)cc3Cl)cc2)CC1	1.38%		2.91 µM [rising, single point]
23	CN(C)S(=O)(=O)c1cc(NC2CC(=O)N(c3ccc(F)cc3)C2=O)ccc1Cl (configuration not stated)	21.4%		0.00517 µM [rising, full curve, poor fit]
24	Cc1csc(NC(=O)c2cn3ccccc3n2)n1	38.5%	13 µM [rising, single point]	
25	Cc1cc(OCC(=O)NC2CC2)c2c(C)cc(=O)oc2c1			2.06 µM [rising, partial curve, poor fit]
26	O=C(Oc1ccccc1C(=O)N1CCOCC1)c1ccccc1		4.61 µM [falling, single point]	
27	CC(C)Cn1c(N)c(C(=O)COC(=O)c2cc(C(F)(F)F)nc3ccccc23)c(=O)n(C)c1=O	-70.4%	16.4 µM [falling, single point]	16.4 µM [falling, single point]
28	O=C(CS(=O)(=O)Cc1ccccc1)NCc1ccc2c(c1)OCO2		0.164 µM [rising, full curve]	5.17 µM [rising, single point]
29	Cc1ccccc1NC(=O)Cc1nc(COC(=O)Cc2c(F)cccc2Cl)cs1	-4.51%		
30	CC(C)(Oc1ccc(Cl)cc1)C(=O)OCn1nnc2ccccc2c1=O		0.146 µM [rising, full curve, poor fit]	
